No constants are given. Whether binding was seen depends on the method and setting. Some results given as binding are weak or reduced against the parent protein; the word gives no strength.
B1: 202A21 (designed binder)
single chain, LHD202 chain A fused to DHR21: HHHHHHGSGLNDIFEAQKIEWHEAENLYFQSGSSEKEKVEELAQRIREQLPDTELAREAQELADEARKSDDSEALKVVYLALRIVQQLPDTELAREALELAKEAVKSTDPAQLIVVQLALKIVQKLPDTEEARRALELAKEAVKSTNKAELVVIAIELLVLLMGVTMEVHKSGNKVKVVIKGLHESQQEQLRKLVHEALRAAGVVAVTQKHGDTVTIYVTEGS
B2: 202B57 (designed binder)
chain: GSSVEFHIVNISEKAAQIIERAVRAISKELGTEVRFEKRDGELTIEVKNLHERRLQEILLLIEAVKLLLLALKAVKEDPSTDALRAVLEAVRFASEVAKRVENPEAVAVLAELVIELALEAVKEDPSTDALRAVLEAVRLASEVAKRVTDADKALKIAKLVIELALEAVKEDPSEEAKRAVEEAKRLAEEVSKRVTDPELSEKIRQLVKELEEEAQKEDPSGSHHWGSGLNDIFEAQKIEWHEGSHHHHHH
B3: 206A54 (designed binder)
chain: HHHHHHGSGLNDIFEAQKIEWHEAENLYFQSGSTEDERRELEKVARKAIEAAREGNTDEVREQLQRALEIARESGTTEAVKLALEVVARVAIEAARRGNTDAVREALEVALEIARESGTTEAVKLALEVVARVAIEAARRGNTDAVREALAVAVKIALKSGTEEAFRLAKEVIKRVSDEAKKQGNEDAVKEAESFDAAAELILSLLKLFRELHERGTEIVVEVHINGRKTEIEVQGIDKRLLQIILEVIIEEIAREGPDKVEVNVHSGGQTWTFRYGGS
B4: LHD274 chainB (designed binder)
chain: NTHFIVVHGSEEARQRAEEYVRRISKKEGTEVRFEKKDGLLSIEVKNLSEERQREIQEYLQRVQK

Columns and labels:
[1] = molecular target: 202A21; assay: SEC titration of the protomer alone at several injection concentrations (Superdex 200, normalised A230); self-association
[2] = molecular target: B2; assay: as above
[3] = molecular target: 206A54; assay: as above
[4] = molecular target: LHD274 chainB; assay: SEC titration (FIG. 10, protomers fused to DHR53); self-association

B1
binding [1]: no binding (tested: 32.0 uM)

B2
binding [2]: no binding (tested: 8.0 uM)

B3
binding [3]: no binding (tested: 32.0 uM)

B4
binding [4]: binds
